Literature values, collected in patent EP0983068B1, “THE USE OF 1,2,4-TRIAZOLO 1,5-c]PYRIMIDINE HETEROCYCLIC ANALOGUES FOR THE PREPARATION OF MEDICAMENTS USEFUL FOR THE TREATMENT OF CEREBROVASCULAR DISTURBANCES” (SCHERING-PLOUGH S.p.A., priority 1997, dated 1998).
Some of these results come from one statement about several compounds together.

Test system: A2A receptors
Details: also block other adenosine receptor subtypes

## CP66713
  selectivity for A2A receptors versus other adenosine receptor subtypes: non-selective antagonists
